Article PMC8262464

The chains behind the UniProt entries cited, without tags or fusion partners. Where a name states a change or a piece, a line headed by the entry shows the natural chain unless it says otherwise. Residues count along the entry.
UniProt P33434: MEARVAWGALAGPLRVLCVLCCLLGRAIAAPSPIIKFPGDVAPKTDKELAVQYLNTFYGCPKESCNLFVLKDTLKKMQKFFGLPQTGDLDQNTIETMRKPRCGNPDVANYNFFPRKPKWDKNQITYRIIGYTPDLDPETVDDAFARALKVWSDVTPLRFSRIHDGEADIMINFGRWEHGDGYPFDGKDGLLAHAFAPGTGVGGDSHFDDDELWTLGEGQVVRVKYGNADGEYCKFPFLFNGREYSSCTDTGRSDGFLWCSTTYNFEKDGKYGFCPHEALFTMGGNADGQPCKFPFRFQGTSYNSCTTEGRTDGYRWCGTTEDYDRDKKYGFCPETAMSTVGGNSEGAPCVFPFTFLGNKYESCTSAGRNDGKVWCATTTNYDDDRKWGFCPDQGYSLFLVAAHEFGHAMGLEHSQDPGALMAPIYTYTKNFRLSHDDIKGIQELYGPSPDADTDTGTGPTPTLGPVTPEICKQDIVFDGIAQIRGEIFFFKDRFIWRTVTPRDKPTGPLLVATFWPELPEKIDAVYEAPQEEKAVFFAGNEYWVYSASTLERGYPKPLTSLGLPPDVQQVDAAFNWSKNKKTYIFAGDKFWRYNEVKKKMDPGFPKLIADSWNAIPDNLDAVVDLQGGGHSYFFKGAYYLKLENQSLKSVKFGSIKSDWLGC
UniProt Q9QUN7, residues 25-784: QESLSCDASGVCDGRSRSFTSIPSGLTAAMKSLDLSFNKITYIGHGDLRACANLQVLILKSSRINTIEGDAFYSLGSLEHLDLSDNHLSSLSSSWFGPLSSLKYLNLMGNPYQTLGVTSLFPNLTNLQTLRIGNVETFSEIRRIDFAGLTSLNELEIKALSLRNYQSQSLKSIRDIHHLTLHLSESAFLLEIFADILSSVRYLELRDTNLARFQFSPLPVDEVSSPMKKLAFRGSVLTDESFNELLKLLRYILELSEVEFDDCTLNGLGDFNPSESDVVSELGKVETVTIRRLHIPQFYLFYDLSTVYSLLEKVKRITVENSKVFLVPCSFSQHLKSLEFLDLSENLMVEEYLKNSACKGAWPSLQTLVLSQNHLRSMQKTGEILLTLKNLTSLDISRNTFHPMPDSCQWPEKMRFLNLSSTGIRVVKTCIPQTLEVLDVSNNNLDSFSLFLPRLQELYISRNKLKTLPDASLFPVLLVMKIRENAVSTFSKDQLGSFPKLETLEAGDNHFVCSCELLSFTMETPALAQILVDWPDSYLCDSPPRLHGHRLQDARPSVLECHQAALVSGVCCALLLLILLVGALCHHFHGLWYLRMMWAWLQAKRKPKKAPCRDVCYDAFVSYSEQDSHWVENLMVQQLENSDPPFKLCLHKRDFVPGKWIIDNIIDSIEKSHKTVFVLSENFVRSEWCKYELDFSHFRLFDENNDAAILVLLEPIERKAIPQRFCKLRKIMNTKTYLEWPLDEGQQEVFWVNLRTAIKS
UniProt P22366: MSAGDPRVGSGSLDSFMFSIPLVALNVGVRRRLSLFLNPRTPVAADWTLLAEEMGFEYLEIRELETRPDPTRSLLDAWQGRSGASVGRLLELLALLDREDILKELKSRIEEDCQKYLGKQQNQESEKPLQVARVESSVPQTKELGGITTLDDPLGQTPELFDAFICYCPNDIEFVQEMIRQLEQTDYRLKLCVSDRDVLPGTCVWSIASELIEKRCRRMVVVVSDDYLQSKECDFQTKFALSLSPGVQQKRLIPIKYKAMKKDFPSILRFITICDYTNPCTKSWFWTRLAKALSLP
UniProt Q9QUK6, residues 26-835: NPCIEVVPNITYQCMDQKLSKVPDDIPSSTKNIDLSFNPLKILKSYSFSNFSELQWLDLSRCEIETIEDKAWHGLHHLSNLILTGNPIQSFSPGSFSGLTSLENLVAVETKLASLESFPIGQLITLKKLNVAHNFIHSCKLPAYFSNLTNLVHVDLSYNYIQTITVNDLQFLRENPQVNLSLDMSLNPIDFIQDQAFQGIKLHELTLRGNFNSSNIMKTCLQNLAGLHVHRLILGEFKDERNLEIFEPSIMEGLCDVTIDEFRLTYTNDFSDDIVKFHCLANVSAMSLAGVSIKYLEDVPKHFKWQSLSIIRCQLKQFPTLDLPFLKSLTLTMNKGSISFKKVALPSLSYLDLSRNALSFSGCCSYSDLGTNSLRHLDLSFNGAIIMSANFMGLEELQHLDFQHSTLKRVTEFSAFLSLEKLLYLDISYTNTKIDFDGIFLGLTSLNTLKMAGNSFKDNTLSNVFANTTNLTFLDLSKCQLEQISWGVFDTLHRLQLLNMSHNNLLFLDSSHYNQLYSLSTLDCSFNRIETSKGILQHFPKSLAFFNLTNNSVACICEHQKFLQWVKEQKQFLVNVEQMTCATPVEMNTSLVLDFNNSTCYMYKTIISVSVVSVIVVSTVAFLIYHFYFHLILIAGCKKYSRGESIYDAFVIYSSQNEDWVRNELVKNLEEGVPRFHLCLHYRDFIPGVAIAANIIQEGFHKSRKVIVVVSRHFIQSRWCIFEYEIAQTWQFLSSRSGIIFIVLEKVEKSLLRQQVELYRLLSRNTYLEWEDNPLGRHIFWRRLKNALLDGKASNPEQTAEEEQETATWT
UniProt P41245: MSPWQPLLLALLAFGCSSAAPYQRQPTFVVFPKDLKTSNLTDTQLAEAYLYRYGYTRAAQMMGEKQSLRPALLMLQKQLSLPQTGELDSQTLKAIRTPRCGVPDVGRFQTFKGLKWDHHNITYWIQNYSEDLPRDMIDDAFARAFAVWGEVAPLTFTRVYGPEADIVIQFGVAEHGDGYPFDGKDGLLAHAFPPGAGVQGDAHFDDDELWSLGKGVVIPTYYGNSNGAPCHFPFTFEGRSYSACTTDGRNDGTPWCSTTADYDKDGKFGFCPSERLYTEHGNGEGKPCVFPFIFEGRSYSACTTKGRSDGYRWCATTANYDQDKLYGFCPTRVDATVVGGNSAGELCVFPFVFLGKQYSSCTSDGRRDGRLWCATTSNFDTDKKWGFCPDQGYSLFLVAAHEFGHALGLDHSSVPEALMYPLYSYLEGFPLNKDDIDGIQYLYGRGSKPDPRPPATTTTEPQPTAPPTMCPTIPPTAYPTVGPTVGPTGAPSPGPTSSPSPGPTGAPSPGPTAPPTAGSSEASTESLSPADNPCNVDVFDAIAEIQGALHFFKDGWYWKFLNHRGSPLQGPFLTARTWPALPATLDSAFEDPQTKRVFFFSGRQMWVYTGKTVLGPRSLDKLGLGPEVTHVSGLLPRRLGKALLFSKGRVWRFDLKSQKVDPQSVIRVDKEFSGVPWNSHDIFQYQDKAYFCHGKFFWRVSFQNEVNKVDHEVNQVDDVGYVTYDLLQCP

Key:
[1] = molecular target: murine MMP2 Flag (matrix metalloproteinase 2, full length) (murine) (UniProt P33434); assay: co-IP; HEK293T cotransfected (5 ug of each plasmid, Lipofectamine 3000); 200 ug lysate incubated overnight with anti-FLAG M2 magnetic beads, eluted with 3x FLAG peptide, Western blot; Mmp2-Flag or Mmp9-Flag with Tlr2-HA, Tlr4-Myc, both, or Myd88-HA
[2] = molecular target: murine TLR2 HA (full-length Tlr2-HA) (murine) (UniProt Q9QUN7); assay: co-IP; reverse co-IP: HEK293T cotransfected; 200 ug lysate incubated overnight with anti-HA agarose or anti-c-MYC agarose, eluted with HA or c-MYC peptide, blot probed for MMP2
MyD88 HA = MyD88 HA (UniProt P22366); assay: as above
murine TLR4 Myc (murine) = murine TLR4 Myc (murine) (UniProt Q9QUK6); assay: as above
MMP9 Flag = MMP9 Flag (UniProt P41245); assay: co-IP; HEK293T cotransfected (5 ug of each plasmid, Lipofectamine 3000); 200 ug lysate incubated overnight with anti-FLAG M2 magnetic beads, eluted with 3x FLAG peptide, Western blot; Mmp2-Flag or Mmp9-Flag with Tlr2-HA, Tlr4-Myc, both, or Myd88-HA

binding [1]	binding [2]	binding (MyD88 HA)	binding (murine TLR4 Myc (murine))	binding (MMP9 Flag)	Substance
no binding					MyD88 HA (from UniProt P22366 1-296)
	binds	no binding	binds		murine MMP2 Flag (matrix metalloproteinase 2, full length) (from UniProt P33434) (enzyme)
binds				no binding	murine TLR4 Myc (from UniProt Q9QUK6 26-835) (receptor)

No constants are given. Whether binding was seen depends on the method and setting. In cells and extracts the contact can be indirect. For part of these data: A result given as binding can be weak or reduced; the word gives no strength.
